The values that follow come from publication PMC10807094.

The assay has as its target T1, serine/arginine rich splicing factor 5 (SRSF5) (UniProt Q13243).
T1 sequence: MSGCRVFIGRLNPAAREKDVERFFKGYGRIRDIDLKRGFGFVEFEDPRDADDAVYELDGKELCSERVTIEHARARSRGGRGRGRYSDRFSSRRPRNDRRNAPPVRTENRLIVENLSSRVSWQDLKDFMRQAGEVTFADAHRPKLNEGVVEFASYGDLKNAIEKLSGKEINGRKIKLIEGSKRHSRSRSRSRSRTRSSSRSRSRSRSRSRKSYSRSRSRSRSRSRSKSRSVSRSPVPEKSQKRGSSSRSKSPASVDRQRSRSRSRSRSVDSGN
The assay can be described thus: co-IP; HEK-293T cells, with and without LINC01852 overexpression; MG132 (20 µM) for 6 h before harvest; bait not stated.

No constants are given. Whether binding was seen depends on the method and setting. In cells and extracts the contact can be indirect. Some binding calls cover weakened binding; strength is not graded here.

B1: E3 ubiquitin ligase TRIM72 (protein, UniProt Q6ZMU5 1-477)
chain: MSAAPGLLHQELSCPLCLQLFDAPVTAECGHSFCRACLGRVAGEPAADGTVLCPCCQAPTRPQALSTNLQLARLVEGLAQVPQGHCEEHLDPLSIYCEQDRALVCGVCASLGSHRGHRLLPAAEAHARLKTQLPQQKLQLQEACMRKEKSVAVLEHQLVEVEETVRQFRGAVGEQLGKMRVFLAALEGSLDREAERVRGEAGVALRRELGSLNSYLEQLRQMEKVLEEVADKPQTEFLMKYCLVTSRLQKILAESPPPARLDIQLPIISDDFKFQVWRKMFRALMPALEELTFDPSSAHPSLVVSSSGRRVECSEQKAPPAGEDPRQFDKAVAVVAHQQLSEGEHYWEVDVGDKPRWALGVIAAEAPRRGRLHAVPSQGLWLLGLREGKILEAHVEAKEPRALRSPERRPTRIGLYLSFGDGVLSFYDASDADALVPLFAFHERLPRPVYPFFDVCWHDKGKNAQPLLLVGPEGAEA
As for B1, the binding entry is reported as “binds”.
